Reference: the supplement of paper PMC11006884
Most of the targets with a hit are listed elsewhere, so they are rarer here than in the full data. This is a noisy data set. The list shows a part of the results, in another mix than the full data.

Protein sequences, listed by entry. Tags and fused reporters are not part of them. Lines headed by an entry give the natural chain unless they say otherwise; changes in a name come on top.
UniProt Q8WXI9: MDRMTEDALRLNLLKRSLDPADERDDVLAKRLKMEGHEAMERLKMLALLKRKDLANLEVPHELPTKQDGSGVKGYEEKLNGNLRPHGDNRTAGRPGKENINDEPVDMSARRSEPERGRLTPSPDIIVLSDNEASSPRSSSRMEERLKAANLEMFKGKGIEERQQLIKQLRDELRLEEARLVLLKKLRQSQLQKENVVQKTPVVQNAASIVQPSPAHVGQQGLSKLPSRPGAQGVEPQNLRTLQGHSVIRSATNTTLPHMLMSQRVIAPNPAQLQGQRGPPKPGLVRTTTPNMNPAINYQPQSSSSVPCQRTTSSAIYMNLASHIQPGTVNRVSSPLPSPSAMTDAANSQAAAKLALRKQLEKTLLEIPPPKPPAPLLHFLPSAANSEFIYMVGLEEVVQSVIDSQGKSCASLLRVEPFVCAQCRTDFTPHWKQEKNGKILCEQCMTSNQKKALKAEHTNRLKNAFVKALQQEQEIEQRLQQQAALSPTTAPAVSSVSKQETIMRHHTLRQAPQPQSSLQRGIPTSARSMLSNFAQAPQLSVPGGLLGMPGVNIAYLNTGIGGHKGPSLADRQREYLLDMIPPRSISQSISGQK
UniProt Q8WX93: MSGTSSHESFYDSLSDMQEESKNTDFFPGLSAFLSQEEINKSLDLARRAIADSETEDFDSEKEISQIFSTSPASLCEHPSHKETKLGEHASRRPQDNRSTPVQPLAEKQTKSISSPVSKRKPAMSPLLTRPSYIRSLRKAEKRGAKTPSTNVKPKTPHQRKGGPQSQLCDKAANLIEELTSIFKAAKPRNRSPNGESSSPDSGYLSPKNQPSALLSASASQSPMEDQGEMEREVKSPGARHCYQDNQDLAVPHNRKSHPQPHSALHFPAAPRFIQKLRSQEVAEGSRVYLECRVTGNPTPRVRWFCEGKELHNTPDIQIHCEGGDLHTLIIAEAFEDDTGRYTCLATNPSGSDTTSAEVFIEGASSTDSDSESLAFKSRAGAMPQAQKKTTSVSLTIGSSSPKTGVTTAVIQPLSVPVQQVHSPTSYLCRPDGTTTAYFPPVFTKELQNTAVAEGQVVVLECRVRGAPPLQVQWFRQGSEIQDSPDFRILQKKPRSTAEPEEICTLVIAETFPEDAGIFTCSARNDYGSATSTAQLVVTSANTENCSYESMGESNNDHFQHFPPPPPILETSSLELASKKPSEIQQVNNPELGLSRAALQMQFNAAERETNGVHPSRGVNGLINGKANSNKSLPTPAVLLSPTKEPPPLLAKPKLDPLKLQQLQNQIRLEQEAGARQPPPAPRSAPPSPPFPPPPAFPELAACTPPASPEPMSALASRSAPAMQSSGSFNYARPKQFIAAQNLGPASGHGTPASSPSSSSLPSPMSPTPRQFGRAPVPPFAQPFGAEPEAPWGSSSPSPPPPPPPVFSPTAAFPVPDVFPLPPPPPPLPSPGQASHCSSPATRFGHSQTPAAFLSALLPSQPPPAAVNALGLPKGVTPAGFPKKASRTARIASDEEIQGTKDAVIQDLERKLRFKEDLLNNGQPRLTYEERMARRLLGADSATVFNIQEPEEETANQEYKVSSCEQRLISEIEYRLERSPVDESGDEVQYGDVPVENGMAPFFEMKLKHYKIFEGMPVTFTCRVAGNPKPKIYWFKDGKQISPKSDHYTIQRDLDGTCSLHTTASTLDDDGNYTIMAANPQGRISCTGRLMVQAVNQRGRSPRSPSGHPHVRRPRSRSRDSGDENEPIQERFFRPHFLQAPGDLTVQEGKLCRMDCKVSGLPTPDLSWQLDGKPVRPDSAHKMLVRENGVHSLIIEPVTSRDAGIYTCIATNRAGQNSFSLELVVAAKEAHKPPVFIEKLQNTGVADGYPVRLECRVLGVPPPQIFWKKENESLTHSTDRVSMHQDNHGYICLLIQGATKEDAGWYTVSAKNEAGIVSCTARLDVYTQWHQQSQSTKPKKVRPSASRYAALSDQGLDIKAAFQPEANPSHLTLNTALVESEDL
UniProt Q8N8S7: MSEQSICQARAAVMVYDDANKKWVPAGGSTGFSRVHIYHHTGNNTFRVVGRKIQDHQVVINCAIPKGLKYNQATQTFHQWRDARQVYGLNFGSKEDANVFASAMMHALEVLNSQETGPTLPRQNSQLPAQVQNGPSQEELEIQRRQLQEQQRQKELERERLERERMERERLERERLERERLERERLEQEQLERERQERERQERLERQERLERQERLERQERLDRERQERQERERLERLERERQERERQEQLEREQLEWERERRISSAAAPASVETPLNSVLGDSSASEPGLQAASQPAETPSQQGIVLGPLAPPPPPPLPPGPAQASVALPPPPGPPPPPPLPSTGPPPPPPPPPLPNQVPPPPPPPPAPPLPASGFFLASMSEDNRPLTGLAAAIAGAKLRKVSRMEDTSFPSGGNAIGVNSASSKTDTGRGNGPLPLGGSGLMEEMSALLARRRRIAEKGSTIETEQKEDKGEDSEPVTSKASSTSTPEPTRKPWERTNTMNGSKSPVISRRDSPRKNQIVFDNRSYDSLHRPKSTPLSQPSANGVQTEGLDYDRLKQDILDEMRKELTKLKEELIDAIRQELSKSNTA
UniProt Q8WWH5: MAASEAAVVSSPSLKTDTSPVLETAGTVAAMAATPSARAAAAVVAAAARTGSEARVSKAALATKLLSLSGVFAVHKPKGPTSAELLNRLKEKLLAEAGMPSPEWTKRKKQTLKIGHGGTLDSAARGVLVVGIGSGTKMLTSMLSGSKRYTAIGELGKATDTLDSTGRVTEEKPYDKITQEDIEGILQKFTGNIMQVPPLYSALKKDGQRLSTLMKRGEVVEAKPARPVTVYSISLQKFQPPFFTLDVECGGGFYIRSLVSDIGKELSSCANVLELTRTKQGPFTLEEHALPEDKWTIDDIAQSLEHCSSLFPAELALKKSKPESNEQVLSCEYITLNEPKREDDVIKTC
UniProt Q8N1F7: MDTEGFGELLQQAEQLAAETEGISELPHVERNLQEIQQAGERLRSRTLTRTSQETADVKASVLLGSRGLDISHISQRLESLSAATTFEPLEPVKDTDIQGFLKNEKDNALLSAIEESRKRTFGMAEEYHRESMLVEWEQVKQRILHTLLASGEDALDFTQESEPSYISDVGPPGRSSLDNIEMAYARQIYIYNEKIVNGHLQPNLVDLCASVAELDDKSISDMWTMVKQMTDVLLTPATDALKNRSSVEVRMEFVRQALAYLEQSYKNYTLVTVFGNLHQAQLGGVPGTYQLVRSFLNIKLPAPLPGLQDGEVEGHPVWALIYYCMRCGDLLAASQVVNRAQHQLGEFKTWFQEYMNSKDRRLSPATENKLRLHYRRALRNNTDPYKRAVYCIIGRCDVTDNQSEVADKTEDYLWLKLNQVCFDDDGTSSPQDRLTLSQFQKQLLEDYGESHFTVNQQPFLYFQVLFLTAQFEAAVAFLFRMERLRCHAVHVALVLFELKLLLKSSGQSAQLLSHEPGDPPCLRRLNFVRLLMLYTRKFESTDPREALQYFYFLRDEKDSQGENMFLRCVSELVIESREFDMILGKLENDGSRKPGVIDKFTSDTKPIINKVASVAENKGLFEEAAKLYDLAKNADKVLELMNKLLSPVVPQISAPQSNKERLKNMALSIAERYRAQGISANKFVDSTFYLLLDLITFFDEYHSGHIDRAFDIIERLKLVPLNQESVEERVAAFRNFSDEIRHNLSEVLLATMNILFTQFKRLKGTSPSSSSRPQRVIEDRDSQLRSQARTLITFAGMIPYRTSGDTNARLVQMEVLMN
UniProt Q92530: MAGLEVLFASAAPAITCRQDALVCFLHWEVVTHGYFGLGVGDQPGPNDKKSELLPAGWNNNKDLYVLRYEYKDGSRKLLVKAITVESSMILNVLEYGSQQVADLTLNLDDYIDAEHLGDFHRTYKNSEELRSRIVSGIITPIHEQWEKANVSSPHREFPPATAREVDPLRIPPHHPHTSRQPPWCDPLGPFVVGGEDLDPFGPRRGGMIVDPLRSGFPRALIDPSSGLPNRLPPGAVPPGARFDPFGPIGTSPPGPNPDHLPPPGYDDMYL
UniProt Q8N6M0: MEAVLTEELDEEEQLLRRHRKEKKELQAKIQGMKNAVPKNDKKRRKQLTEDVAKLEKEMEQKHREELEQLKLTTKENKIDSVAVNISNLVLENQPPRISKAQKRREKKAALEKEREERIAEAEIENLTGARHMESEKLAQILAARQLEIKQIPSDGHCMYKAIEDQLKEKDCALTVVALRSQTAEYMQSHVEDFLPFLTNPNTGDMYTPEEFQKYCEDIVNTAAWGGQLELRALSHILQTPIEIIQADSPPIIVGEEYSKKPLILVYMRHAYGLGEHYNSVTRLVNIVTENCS
UniProt Q8N392: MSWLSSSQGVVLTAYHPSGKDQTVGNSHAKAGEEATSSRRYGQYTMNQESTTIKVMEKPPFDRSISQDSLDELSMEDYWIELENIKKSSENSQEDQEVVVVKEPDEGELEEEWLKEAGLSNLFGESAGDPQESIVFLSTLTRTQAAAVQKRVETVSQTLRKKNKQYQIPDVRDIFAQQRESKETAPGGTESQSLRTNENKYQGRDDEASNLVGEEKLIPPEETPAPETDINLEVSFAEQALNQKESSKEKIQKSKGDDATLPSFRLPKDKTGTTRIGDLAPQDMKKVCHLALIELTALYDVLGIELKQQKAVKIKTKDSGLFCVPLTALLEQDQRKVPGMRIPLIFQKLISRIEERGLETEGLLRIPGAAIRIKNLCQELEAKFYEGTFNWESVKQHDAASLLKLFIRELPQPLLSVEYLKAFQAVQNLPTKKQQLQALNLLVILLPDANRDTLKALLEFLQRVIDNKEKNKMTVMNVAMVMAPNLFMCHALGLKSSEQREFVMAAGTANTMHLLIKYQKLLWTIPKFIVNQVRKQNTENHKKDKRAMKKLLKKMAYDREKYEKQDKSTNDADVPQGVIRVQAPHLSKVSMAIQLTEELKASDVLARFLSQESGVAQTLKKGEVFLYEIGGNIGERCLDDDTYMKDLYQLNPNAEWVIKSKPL
UniProt Q8WZA9: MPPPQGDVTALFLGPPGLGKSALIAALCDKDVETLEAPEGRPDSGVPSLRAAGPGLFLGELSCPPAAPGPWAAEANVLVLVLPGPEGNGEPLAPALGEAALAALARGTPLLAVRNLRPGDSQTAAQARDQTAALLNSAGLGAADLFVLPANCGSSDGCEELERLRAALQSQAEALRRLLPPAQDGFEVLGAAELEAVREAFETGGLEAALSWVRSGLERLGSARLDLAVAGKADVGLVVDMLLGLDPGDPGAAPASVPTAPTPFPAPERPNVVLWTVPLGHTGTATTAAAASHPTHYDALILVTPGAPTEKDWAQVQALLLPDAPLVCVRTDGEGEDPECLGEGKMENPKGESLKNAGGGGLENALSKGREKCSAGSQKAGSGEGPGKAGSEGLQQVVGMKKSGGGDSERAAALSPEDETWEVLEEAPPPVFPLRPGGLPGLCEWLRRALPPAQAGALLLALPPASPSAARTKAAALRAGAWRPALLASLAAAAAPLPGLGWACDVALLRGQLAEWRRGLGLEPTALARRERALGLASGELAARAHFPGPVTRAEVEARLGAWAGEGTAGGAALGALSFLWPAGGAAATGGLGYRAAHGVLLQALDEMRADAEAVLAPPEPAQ
UniProt Q8TAT6: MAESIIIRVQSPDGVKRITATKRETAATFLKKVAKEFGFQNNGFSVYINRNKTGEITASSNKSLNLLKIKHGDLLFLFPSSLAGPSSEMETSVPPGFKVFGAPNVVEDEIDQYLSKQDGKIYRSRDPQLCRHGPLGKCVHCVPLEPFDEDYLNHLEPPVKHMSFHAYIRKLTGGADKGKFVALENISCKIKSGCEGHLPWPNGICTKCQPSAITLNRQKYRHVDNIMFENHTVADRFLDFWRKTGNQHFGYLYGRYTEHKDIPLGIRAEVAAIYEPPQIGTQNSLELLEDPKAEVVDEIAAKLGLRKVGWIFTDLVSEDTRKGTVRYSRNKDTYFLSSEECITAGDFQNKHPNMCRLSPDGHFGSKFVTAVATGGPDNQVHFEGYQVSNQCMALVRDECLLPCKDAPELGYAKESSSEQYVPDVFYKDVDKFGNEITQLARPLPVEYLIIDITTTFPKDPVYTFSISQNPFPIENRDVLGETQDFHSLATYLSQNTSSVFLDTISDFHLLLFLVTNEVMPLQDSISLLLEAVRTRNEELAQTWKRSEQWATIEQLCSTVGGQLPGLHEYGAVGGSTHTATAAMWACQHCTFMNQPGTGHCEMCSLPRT
UniProt Q8TDX7: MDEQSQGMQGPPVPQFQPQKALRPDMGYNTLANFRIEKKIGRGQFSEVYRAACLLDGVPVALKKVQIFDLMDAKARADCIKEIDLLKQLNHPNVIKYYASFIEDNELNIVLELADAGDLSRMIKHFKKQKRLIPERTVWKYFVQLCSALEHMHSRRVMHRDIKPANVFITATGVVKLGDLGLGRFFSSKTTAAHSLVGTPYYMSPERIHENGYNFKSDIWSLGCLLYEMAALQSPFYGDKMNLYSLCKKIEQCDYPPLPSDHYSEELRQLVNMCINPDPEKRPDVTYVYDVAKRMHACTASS

Compound: COC(=O)/C=C/c1ccccc1 [methyl cinnamate]
Assay: log2 ratio of iodoacetamide-alkyne labeling of the cysteine site, DMSO over compound (competition); higher = stronger covalent engagement of the cysteine by the compound, active = 1 or more
Conditions: 500 µM; treatment time 1 h; system: HEK293T cell lysate
In short: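 Three replicates, each with duplicate channels, were prepared from HEK293T lysate (2 mg/mL) treated with vehicle or electrophile at 500 µM for 1 h at ambient temperature. Iodoacetamide alkyne was then applied for 1 h, and samples were clicked to sCIP-TMT reagents, pooled, trypsin-digested overnight at 37 °C, enriched on streptavidin, acid-eluted and analysed on Orbitrap Eclipse LC-MS/MS with FAIMS, with FragPipe quantification. The log2 competition ratio per cysteine is the mean control-channel divided by the mean compound-channel reporter intensity. Cysteines quantified in only one replicate were left out.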

log2 ratio of iodoacetamide-alkyne labeling, inactive:
ATG4A C217 (UniProt Q8WYN0) 0.177
GATAD2B C420 (UniProt Q8WXI9) 0.0732
PALLD C964 (UniProt Q8WX93) 0.369
DDX1 C110 (UniProt Q92499) 0.175
ENAH C7 (UniProt Q8N8S7) 0.166
PUM2 C169 (UniProt Q8TB72) 0.0956
STAG2 C915 (UniProt Q8N3U4) 0.223
TRUB1 C269 (UniProt Q8WWH5) -0.091
GTF3C2 C608 (UniProt Q8WUA4) 0.15
NUP93 C422 (UniProt Q8N1F7) 0.142
PSMF1 C185 (UniProt Q92530) -0.0327
OTUD6B C172 (UniProt Q8N6M0) 0.188
UniProt Q8N0X7_C405 0.158
ARHGAP18 C323 (UniProt Q8N392) 0.0712
UniProt Q8NFC6_C2164 0.254
UniProt Q8WZA9_C443 -0.284
UniProt Q8TDB4_C139 0.307
VPS8 C864 (UniProt Q8N3P4) -0.177
IPO4 C95 (UniProt Q8TEX9) 0.777
NPLOC4 C188 (UniProt Q8TAT6) -0.022
DNAJB14 C77 (UniProt Q8TBM8) 0.491
NEK7 C53 (UniProt Q8TDX7) 0.0759

2 entries picked at random from those above:
log2 ratio of iodoacetamide-alkyne labeling, inactive:
STAG2 C915 (UniProt Q8N3U4) 0.223
PUM2 C169 (UniProt Q8TB72) 0.0956
